Test results reported in PubChem BioAssay AID504834 (National Center for Advancing Translational Sciences (NCATS), 2011).
About 22,000 (6.9%) of roughly 320,000 compounds were called active. Inconclusive means that the source gave no clear call. Such entries were picked first, then a sample of the others. Calls follow the shape of the dose curve; as a rule, active = well fitted inhibition curve with a large enough effect; inconclusive = small, poorly fitted or top-dose-only effect, or another doubt; inactive = no such curve, though single readings can be large or run the other way. Potencies of inconclusive entries are doubtful fits and often do not repeat.

Experiment: Primary qHTS for delayed death inhibitors of the malarial parasite plastid, 96 hour incubation
Details: P. falciparum luciferase reporter growth; series mostly up to 28.7 µM
Method in brief: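 Cell-based qHTS: luciferase-tagged P. falciparum in erythrocytes (2% hematocrit, 0.05% parasitemia final) incubated with compounds for 96 hours, 37 C, 5% CO2; luciferase detection reagent then added and luminescence measured.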
Potency is read from the fitted curve at half-maximal effect.

Row | SMILES | Potency
1 | CC(=O)N1c2ccc(S(=O)(=O)N3CCCC(C(=O)Nc4ccc(F)cc4)C3)cc2CC1C (centres undefined) | inactive
2 | COc1ccccc1CN(C(=O)CNC(=O)c1ccco1)C(C(=O)NCC1CCCO1)c1ccc(OC)c(OC)c1 (centres undefined) | inconclusive: 5.86 µM [inhibitor, partial curve, poor fit]
3 | COc1ccc(-c2[nH]c(-c3cccc(OC)c3)nc2SCC(=O)NC2CCCC2)cc1 | active: 3.29 µM
4 | O=C(c1cc(-c2ccncc2)nc2ccccc12)N1CCN(c2ccc(N3CCOCC3)nn2)CC1 | inconclusive: 1.85 µM [inhibitor, partial curve, poor fit]
5 | N#C/C(=C\c1ccc2c(c1)OCCO2)C(=O)Nc1nccs1 | inactive
6 | Cc1ccc(CNCc2ccco2)cc1 | inconclusive: 18.5 µM [inhibitor, single point]
7 | COc1cc(NC(=O)C2CCCO2)c(OC)cc1NC(=O)c1ccccc1 (centres undefined) | inconclusive: 5.22 µM [inhibitor, single point]
8 | CC1CCCCN1S(=O)(=O)c1ccc2[nH]c(=O)cc(C(=O)NCCCN3CCCCCC3)c2c1 (centres undefined) | inactive
9 | CCOc1ccc(OCc2ccc(C(=O)NCc3ccncc3)o2)cc1 | inactive
10 | Cc1ncc2c(c1OC(=O)c1ccccc1)COC(C)(C)OC2 | inconclusive: 18.5 µM [inhibitor, single point]
11 | Cc1ccc(-c2csc3ncnc(NCCC(=O)O)c23)cc1 | inactive
12 | COc1ccccc1-c1csc(NC(=O)c2ccc(N3C(=O)CCC3=O)cc2)n1 | inconclusive: 11.7 µM [inhibitor, single point]
13 | CCC[C@H](CN[C@@H](CNC)[C@H](C)O)NCCc1ccc(OC)cc1 | inconclusive: 2.33 µM [inhibitor, partial curve, poor fit]
14 | CC(NC(=O)c1ccccc1F)C12CC3CC(CC(C3)C1)C2 (centres undefined) | inactive
15 | COc1ccc(Cl)cc1NC(=O)C1(c2cccs2)CCOCC1 | inconclusive: 9.28 µM [inhibitor, single point]
16 | C#C[C@]1(OC(C)=O)CC[C@H]2[C@@H]3CCC4=C[C@@H](OC(C)=O)CC[C@@H]4[C@H]3CC[C@@]21C | inconclusive: 8.49 µM [inhibitor, partial curve, poor fit]
17 | O=C(OCC(=O)N(CCc1ccccc1)Cc1ccccc1)c1ccccc1O | inconclusive: 18.5 µM [inhibitor, single point]
18 | CSc1ccc(/C=c2\s/c(=C\C(=O)C(C)(C)C)n(CC(=O)NCCC3=CCCCC3)c2=O)cc1 | inconclusive: 2.33 µM [inhibitor, full curve, poor fit]
19 | COc1cccc(C(=O)NCC(=O)n2nc(C)cc2C)c1 | inactive
20 | Cc1cc(NC(=O)c2ccc(C)c(C)c2)no1 | inconclusive: 4.15 µM [inhibitor, single point]
21 | Oc1ccc(N=Nc2cccc(C(F)(F)F)c2)cc1C=Nc1ccc(N2CCOCC2)cc1 | active: 3.29 µM
22 | Cc1ccc(CN(C)C(=O)CN2C(=O)NC3(CCCC3)C2=O)o1 | inconclusive: 18.5 µM [inhibitor, single point]

Single values from above.
Value of Cc1ncc2c(c1OC(=O)c1ccccc1)COC(C)(C)OC2 under Potency: inconclusive: 18.5 µM [inhibitor, single point]
Value of O=C(OCC(=O)N(CCc1ccccc1)Cc1ccccc1)c1ccccc1O under Potency: inconclusive: 18.5 µM [inhibitor, single point]

Continuation.

Row | SMILES | Potency
23 | Cc1cc2cc(CN(Cc3cccs3)C(c3nnnn3C(C)(C)C)C(C)C)c3nnnn3c2cc1C (centres undefined) | inconclusive: 18.5 µM [inhibitor, single point]
24 | Cc1ccc(CN2CCNC(=O)C2CC(=O)N2CCN(c3ncccn3)CC2)o1 (centres undefined) | inconclusive: 11.7 µM [inhibitor, single point]
25 | COc1cc(C)nc(N2CCC(C(N)=O)CC2)n1 | active: 9.28 µM
26 | CCOCCCn1c(SCC(=O)Nc2cc(OC)ccc2OC)nc2ccccc2c1=O | inconclusive: 18.5 µM [inhibitor, single point]
27 | NC(=O)c1cc(S(=O)(=O)Nc2ccccc2)cs1 | inactive
28 | COCCC(=O)Nc1ccc2c(c1)CN(C(=O)c1ccc(CSC)o1)CC2 | active: 13.1 µM
29 | COc1ccc(CCN2C(=O)NC(NS(=O)(=O)c3ccc(NC(C)=O)cc3)(C(F)(F)F)C2=O)cc1OC (centres undefined) | inactive
30 | O=C(CCn1nnc2ccccc21)NNC(=O)C1CCCCC1 | inactive
31 | CC(C)CCN(C(=O)CCSc1ccc(F)cc1)c1c(N)n(Cc2ccccc2)c(=O)[nH]c1=O | inconclusive: 13.1 µM [inhibitor, single point]
32 | O=C(CN1CCN(c2ccccc2O)CC1)NC(c1ccccc1)c1ccccc1 | inconclusive: 10.4 µM [inhibitor, single point]
33 | CCOc1ccc(C(=O)Nc2nc3ccccc3[nH]2)cc1OCC | inconclusive: 13.1 µM [inhibitor, single point]
34 | CC(=O)c1sc(-c2ccccc2Cl)nc1C | inactive
35 | COc1ccc(/C=C2\Oc3cc(OC(=O)N4CCOCC4)ccc3C2=O)cc1 | inconclusive: 0.208 µM [inhibitor, full curve, poor fit]
36 | c1ccc(-c2cn(-c3ccccc3)c3[n+]2CCS3)cc1 | inconclusive: 0.586 µM [inhibitor, full curve, poor fit]
37 | CCOc1ccc(C(=O)N(CC)CC(=O)Nc2ccc3c(c2)OCCO3)cc1 | inactive
38 | CCN1C(=O)/C(=C/c2nc3ccccc3c(=O)n2-c2ccc(C)cc2)c2ccccc21 | inconclusive: 4.15 µM [inhibitor, partial curve, poor fit]
39 | Cc1nn(CC(=O)NCc2ccccc2)c(C)c1[N+](=O)[O-] | inconclusive: 13.1 µM [inhibitor, partial curve, poor fit]
40 | CSCC[C@H](NC(=O)[C@@H]1CSC2c3ccccc3C(=O)N21)C(=O)NC1CCCC1 (some centres undefined) | inconclusive: 18.5 µM [inhibitor, single point]
41 | Cc1c(C(=O)Nc2nccs2)oc2c(Cl)cccc12 | inconclusive: 14.7 µM [inhibitor, single point]
42 | Cc1cc(C)c(-n2c(SCc3nc4ccccc4s3)n[nH]c2=O)c(C)c1 | inactive
43 | O=C(c1ccc(Cl)c(S(=O)(=O)Nc2ccccc2C(=O)N2CCc3ccccc3C2)c1)N1CCc2ccccc2C1 | inconclusive: 6.57 µM [inhibitor, partial curve]
44 | Cc1ccc(NC(=O)CSc2nncn2-c2ccccn2)cc1Cl | inactive
